Data: the supplement of paper PMC10849652
This is one part of the list.

Protein sequences, listed by entry. Tags and fused reporters are not part of them. Lines headed by an entry give the natural chain unless they say otherwise; changes in a name come on top.
UniProt P47813, whole entry, looked up: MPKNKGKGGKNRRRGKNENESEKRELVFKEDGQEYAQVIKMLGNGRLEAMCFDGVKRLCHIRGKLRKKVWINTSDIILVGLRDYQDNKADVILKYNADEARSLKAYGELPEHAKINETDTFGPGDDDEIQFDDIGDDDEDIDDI
UniProt P38919, whole entry, looked up: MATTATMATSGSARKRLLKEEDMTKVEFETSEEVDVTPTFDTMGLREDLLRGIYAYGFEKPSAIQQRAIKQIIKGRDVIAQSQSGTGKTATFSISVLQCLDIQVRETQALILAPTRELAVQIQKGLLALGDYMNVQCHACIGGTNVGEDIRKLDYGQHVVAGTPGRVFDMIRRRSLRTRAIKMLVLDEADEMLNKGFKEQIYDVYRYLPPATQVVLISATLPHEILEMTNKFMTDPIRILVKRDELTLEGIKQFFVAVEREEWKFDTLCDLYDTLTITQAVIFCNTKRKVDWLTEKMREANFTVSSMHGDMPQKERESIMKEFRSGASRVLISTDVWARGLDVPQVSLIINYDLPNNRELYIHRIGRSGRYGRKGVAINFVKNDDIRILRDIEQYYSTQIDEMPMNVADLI
UniProt P41091, whole entry, looked up: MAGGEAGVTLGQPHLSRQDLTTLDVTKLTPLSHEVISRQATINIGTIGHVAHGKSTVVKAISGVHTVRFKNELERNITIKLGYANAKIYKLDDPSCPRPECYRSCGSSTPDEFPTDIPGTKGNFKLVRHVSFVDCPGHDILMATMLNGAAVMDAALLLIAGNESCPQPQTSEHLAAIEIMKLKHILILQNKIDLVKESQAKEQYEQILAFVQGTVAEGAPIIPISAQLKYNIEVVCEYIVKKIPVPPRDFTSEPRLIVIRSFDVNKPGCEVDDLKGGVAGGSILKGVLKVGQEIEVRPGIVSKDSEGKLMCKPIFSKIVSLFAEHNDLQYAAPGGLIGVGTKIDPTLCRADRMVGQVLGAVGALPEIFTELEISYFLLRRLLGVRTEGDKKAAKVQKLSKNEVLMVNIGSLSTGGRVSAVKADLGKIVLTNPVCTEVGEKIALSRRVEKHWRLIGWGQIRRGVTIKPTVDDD
UniProt O95163: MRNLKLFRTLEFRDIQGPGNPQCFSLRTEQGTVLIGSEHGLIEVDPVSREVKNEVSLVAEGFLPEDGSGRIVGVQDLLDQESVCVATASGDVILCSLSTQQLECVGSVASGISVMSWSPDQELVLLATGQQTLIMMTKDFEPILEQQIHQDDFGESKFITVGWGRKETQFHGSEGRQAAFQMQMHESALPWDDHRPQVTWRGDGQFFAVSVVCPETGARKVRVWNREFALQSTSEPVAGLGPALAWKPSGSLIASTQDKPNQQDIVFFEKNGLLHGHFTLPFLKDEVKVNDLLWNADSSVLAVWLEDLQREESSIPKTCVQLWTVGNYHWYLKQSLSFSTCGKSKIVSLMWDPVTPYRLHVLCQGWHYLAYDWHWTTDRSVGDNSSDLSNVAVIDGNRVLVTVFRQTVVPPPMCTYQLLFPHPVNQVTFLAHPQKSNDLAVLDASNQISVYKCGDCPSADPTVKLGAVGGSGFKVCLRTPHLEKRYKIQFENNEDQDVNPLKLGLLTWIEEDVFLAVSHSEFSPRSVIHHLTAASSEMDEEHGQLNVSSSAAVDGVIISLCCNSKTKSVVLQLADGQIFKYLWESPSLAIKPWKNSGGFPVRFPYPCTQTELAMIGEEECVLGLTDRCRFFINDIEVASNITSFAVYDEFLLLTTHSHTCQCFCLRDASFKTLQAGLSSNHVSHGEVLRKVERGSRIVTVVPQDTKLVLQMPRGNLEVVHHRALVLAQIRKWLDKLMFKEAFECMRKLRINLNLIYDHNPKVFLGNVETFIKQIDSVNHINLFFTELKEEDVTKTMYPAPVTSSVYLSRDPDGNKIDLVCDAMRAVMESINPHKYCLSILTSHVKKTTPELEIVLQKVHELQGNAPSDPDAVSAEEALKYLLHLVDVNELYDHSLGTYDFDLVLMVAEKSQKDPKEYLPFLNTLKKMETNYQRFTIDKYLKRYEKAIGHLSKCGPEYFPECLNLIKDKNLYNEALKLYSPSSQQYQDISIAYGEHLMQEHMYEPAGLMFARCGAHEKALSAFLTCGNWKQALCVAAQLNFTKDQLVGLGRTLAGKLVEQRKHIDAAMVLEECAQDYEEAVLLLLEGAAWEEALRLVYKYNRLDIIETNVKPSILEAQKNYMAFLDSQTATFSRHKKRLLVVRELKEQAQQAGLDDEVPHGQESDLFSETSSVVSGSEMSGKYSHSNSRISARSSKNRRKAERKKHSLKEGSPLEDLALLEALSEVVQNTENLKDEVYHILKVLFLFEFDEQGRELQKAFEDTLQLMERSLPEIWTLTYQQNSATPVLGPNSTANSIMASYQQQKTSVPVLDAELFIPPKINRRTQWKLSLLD
UniProt Q8N6R0: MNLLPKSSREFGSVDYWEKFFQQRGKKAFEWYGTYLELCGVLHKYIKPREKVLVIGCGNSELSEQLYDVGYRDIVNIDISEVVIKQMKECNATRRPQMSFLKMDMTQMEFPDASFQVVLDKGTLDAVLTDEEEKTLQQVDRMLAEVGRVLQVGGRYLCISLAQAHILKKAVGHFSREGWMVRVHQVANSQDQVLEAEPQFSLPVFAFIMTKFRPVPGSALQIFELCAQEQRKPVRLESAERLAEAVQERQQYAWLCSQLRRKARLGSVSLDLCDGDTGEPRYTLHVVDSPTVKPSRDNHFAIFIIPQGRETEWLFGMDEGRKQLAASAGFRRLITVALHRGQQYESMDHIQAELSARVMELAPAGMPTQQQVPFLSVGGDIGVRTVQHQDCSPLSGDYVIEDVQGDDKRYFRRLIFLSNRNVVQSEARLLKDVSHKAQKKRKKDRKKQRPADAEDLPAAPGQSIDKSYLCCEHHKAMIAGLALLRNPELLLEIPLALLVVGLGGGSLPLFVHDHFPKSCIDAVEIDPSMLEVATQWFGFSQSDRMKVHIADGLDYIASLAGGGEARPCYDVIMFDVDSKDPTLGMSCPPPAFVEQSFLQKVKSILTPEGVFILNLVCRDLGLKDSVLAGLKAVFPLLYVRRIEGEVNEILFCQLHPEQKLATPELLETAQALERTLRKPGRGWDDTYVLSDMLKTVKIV
UniProt P06733, whole entry, looked up: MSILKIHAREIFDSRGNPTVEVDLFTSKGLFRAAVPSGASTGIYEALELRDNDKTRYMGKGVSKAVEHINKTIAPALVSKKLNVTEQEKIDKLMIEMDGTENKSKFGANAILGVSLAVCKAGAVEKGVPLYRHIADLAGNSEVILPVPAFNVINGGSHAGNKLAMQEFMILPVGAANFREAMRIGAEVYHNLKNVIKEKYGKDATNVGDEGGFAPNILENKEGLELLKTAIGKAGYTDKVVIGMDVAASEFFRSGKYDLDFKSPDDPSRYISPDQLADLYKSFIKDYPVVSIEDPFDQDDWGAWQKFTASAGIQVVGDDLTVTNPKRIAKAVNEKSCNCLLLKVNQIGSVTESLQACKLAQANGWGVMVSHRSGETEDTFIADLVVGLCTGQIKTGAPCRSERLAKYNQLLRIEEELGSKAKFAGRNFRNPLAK
UniProt Q7L2H7, whole entry, looked up: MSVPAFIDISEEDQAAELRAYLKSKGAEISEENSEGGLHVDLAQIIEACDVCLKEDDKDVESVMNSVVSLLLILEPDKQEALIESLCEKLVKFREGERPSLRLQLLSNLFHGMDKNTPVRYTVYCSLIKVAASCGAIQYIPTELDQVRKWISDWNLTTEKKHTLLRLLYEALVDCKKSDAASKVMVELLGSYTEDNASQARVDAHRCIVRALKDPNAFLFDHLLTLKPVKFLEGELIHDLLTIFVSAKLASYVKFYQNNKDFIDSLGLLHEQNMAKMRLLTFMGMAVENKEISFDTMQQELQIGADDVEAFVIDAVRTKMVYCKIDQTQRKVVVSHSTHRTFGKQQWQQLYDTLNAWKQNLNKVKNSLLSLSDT
UniProt Q15717, whole entry, looked up: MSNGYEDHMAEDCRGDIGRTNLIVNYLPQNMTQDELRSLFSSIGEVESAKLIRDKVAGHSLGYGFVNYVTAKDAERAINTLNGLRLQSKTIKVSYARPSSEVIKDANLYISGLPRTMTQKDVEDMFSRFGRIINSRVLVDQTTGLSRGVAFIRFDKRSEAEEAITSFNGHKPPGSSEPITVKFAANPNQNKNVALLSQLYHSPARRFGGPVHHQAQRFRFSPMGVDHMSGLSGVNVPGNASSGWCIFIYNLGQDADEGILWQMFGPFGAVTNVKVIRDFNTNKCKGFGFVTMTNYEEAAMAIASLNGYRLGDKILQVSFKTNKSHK
UniProt O60573: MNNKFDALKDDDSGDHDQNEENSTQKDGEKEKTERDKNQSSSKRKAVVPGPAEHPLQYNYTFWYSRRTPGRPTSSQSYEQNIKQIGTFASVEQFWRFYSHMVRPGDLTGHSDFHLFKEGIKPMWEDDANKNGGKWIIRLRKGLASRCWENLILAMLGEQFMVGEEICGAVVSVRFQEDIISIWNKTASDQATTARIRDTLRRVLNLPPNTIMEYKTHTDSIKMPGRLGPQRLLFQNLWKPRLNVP
UniProt Q14249: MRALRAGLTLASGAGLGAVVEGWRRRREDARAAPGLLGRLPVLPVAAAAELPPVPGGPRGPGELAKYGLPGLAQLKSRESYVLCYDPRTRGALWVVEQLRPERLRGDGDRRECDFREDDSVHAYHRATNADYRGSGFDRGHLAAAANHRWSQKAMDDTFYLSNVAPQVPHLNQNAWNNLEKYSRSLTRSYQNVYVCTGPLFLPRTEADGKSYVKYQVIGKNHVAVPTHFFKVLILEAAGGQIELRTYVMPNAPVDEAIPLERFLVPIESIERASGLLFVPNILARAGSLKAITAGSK
UniProt P11171, whole entry, looked up: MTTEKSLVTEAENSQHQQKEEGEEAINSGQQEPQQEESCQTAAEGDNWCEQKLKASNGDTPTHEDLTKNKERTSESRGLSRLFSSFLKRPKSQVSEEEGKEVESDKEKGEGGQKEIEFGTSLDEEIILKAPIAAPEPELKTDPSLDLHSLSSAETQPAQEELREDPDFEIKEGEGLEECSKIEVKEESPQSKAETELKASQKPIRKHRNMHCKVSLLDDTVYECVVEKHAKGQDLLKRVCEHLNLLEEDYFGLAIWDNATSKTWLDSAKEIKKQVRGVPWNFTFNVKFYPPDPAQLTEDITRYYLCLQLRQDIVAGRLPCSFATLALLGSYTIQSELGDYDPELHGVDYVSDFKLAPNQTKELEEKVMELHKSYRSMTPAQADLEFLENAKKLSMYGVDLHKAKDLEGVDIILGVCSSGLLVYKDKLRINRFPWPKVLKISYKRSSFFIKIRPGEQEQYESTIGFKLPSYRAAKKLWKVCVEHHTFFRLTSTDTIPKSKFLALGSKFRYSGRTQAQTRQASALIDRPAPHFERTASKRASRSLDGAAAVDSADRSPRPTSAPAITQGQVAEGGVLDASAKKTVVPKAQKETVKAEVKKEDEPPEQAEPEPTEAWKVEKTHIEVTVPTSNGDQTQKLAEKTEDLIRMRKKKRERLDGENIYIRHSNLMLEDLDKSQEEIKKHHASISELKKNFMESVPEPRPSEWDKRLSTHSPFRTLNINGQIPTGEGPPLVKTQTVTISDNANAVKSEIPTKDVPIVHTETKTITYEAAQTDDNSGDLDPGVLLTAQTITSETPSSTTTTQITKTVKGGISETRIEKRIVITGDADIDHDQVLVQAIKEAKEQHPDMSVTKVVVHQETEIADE
UniProt Q13542: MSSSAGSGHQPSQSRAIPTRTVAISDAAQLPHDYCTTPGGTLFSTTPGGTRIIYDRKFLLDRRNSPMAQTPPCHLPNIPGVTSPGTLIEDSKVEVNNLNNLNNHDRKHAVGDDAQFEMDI
UniProt Q9UI10, whole entry, looked up: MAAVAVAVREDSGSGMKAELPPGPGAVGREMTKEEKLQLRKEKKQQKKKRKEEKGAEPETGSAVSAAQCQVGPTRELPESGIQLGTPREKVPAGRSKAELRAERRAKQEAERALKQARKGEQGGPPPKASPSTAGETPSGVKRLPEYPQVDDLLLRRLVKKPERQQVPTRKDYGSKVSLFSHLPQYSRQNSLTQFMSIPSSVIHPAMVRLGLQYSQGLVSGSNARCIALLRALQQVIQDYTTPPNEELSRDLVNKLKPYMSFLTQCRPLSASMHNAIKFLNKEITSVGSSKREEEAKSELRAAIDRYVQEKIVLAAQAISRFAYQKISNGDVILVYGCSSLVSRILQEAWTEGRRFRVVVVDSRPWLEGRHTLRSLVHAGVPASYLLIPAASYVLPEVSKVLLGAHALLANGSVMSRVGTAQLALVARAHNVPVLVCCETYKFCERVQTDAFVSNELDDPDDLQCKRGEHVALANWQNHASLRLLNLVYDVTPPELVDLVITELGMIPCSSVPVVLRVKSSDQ
UniProt Q13541: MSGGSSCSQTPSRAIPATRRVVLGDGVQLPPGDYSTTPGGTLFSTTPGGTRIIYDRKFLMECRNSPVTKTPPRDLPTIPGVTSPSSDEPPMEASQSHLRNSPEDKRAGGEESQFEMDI
UniProt Q8N9N8: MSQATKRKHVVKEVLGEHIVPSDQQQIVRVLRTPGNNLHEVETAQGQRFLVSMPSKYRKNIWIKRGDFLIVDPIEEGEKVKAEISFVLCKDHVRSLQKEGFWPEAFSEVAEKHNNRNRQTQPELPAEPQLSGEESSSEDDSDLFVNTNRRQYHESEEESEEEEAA

Legend:
Test in all cases: log2 fold change, soluble protein after heating vs DMSO (PISA); higher = thermal stabilisation; K562 cells, 10 uM, 30 min; active = over 0.2 and 3.5 SD of the protein, either way, in both replicates (recomputed)
erlotinib = compound: C#Cc1cccc(Nc2ncnc3cc(OCCOC)c(OCCOC)cc23)c1 [erlotinib]
Procedure, shortened: (§1)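 K562 cells at 2×10^6 cells/mL were given 10 μM compound for 30 min. Aliquots then went through 3 min of heating across 48°C-58°C, were pooled, and were extracted in PBS with 0.5% NP-40 at 4°C, and the supernatant after 21,000xg for 90 min was quantified by TMTpro 16plex LC-MS/MS with channel sums equalised. Thermal stability relative to control samples, from duplicates, is given as log2 fold change.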

[1] = compound: C/C(=N\NC(=O)C1=CC(=CC=C1)S(=O)(=O)N2CCOCC2)/C3=C(C=CC(=C3)Cl)O
Procedure, shortened: as §1

[2] = compound: C1=CC(=C(C=C1Cl)C2=NC3=NC=CN=C3C(=N2)NC4=CC=NC=C4)F
Procedure, shortened: as §1

[3] = compound: C1=CC(=CC=C1C2=NC3=C(N2)C=C(C=C3)C(=O)N)OC4=CC=C(C=C4)Cl
Procedure, shortened: as §1

[4] = compound: C1=CC2=C(C=CC(=C2)/C=C\3/C(=O)NC(=NCC4=CC=CS4)S3)N=C1
Procedure, shortened: as §1

[5] = compound: C1=CC2=NC=CN=C2C=C1/C=C/3\C(=O)NC(=O)S3
Procedure, shortened: as §1

[6] = compound: C1=CC=C(C=C1)C2=NC(=C(N2)C3=CC=NC=C3)C4=CC(=C(C=C4)Cl)O
Procedure, shortened: as §1

[7] = compound: C1=CC=C2C(=C1)C3=NNC4=CC=CC(=C43)C2=O
Procedure, shortened: as §1

[8] = compound: C1CCN(C1)C(=O)NC2=CC=CC(=C2)NC3=NC=C(C(=N3)NCCC4=CN=CN4)Br
Procedure, shortened: as §1

[9] = compound: C1CN(CCC1(CC2=CC=C(C=C2)Cl)N)C3=NC=NC4=C3C=CN4
Procedure, shortened: as §1

Measured: log2 fold change

EIF1AX (UniProt P47813)
inactive: erlotinib -0.04 | [1] 0.012 | [2] -0.015 | [3] -0.017 | [4] -0.019 | [5] 0.017 | [6] 0.085 | [7] -0.002 | [8] 0.018 | [9] -0.052

EIF4A3 (UniProt P38919)
inactive: erlotinib -0.026 | [1] 0.01 | [2] 0.039 | [3] -0.003 | [4] 0.021 | [5] -0.012 | [6] -0.012 | [7] -0.004 | [8] -0.027 | [9] 0.001

ENO3 (UniProt P13929)
inactive: erlotinib -0.006 | [1] 0.038 | [2] 0.193 | [3] 0.005 | [4] -0.094 | [5] 0.035 | [6] 0.051 | [7] -0.026 | [8] -0.058 | [9] 0.065

EEF1D isoform 2 (UniProt P29692)
inactive: erlotinib 0 | [1] 0.031 | [2] 0.016 | [3] -0.028 | [4] 0.025 | [5] 0.02 | [6] -0.03 | [7] 0.021 | [8] 0.048 | [9] -0.055

ENY2 (UniProt Q9NPA8)
inactive: erlotinib -0.024 | [1] 0 | [2] 0.039 | [3] 0.035 | [4] 0.052 | [5] 0.01 | [6] -0.027 | [7] -0.059 | [8] 0.003 | [9] -0.078

EIF2S3 (UniProt P41091)
inactive: erlotinib -0.028 | [1] -0.041 | [2] -0.18 | [3] -0.004 | [4] -0.023 | [5] -0.006 | [6] -0.037 | [7] 0.015 | [8] -0.023 | [9] -0.06

ELOB (UniProt Q15370)
inactive: erlotinib -0.02 | [1] 0.052 | [2] 0.084 | [3] -0.01 | [4] 0.075 | [5] 0.061 | [6] 0.014 | [7] -0.027 | [8] 0.017 | [9] 0.006

ELOF1 (UniProt P60002)
inactive: erlotinib -0.072 | [1] 0.025 | [2] 0.026 | [3] 0.051 | [4] -0.045 | [5] -0.015 | [6] 0.062 | [7] -0.257 | [8] -0.153 | [9] -0.054

EIF2AK2 (UniProt P19525)
inactive: erlotinib -0.021 | [1] -0.24 | [2] -0.425 | [3] 0.216 | [4] -0.104 | [5] -0.04 | [6] -0.191 | [7] 0.159 | [8] 0.102 | [9] -0.211

EIF2B1 (UniProt Q14232)
inactive: erlotinib 0 | [1] 0.05 | [2] 0.045 | [3] -0.004 | [4] -0.01 | [5] -0.017 | [6] 0.012 | [7] 0.017 | [8] -0.037 | [9] -0.017

Quoted from the entries so far (2 entries):
EIF2AK2 (UniProt P19525)
inactive: erlotinib -0.021 | [1] -0.24 | [2] -0.425 | [3] 0.216 | [4] -0.104 | [5] -0.04 | [6] -0.191 | [7] 0.159 | [8] 0.102 | [9] -0.211

EIF2B1 (UniProt Q14232)
inactive: erlotinib 0 | [1] 0.05 | [2] 0.045 | [3] -0.004 | [4] -0.01 | [5] -0.017 | [6] 0.012 | [7] 0.017 | [8] -0.037 | [9] -0.017

Following part.

ELP1 (UniProt O95163)
inactive: erlotinib 0.026 | [1] -0.013 | [2] 0.044 | [3] -0.025 | [4] 0.032 | [5] 0 | [6] 0.012 | [7] 0.037 | [8] -0.018 | [9] 0.03

ENOSF1 (UniProt Q7L5Y1)
inactive: erlotinib 0 | [1] 0.008 | [2] 0.021 | [3] 0.02 | [4] -0.065 | [5] -0.051 | [6] 0.028 | [7] 0.035 | [8] 0.032 | [9] 0.042

EEF1AKNMT (UniProt Q8N6R0)
inactive: erlotinib 0.063 | [1] 0.15 | [2] 0.008 | [3] -0.022 | [4] 0.114 | [5] 0.013 | [6] 0.091 | [7] 0.058 | [8] 0.023 | [9] -0.061

EFL1 (UniProt Q7Z2Z2)
inactive: erlotinib 0 | [1] 0.051 | [2] 0.027 | [3] 0.002 | [4] 0.013 | [5] 0.002 | [6] 0.053 | [7] 0.043 | [8] 0.027 | [9] 0.013

ENO1 (UniProt P06733)
inactive: erlotinib 0.04 | [1] -0.006 | [2] 0.018 | [3] -0.008 | [4] 0.014 | [5] -0.01 | [6] -0.039 | [7] -0.005 | [8] 0.028 | [9] 0.037

ENDOD1 (UniProt O94919)
inactive: erlotinib -0.037 | [1] -0.014 | [2] -0.067 | [3] 0.003 | [4] -0.019 | [5] 0.028 | [6] 0.016 | [7] 0.021 | [8] 0.036 | [9] 0.038

EIF3M (UniProt Q7L2H7)
inactive: erlotinib -0.033 | [1] 0.074 | [2] 0.007 | [3] -0.007 | [4] -0.005 | [5] 0.036 | [6] 0.095 | [7] 0.034 | [8] -0.017 | [9] -0.081

EED, A0A5F9ZI63
inactive: erlotinib 0.056 | [1] 0.049 | [2] -0.04 | [3] 0.028 | [4] -0.1 | [5] 0.05 | [6] -0.036 | [7] -0.033 | [8] 0.032 | [9] 0.012

EHMT2 (UniProt Q96KQ7)
inactive: erlotinib 0.085 | [1] 0.075 | [2] 0.021 | [3] -0.045 | [4] 0.026 | [5] 0.056 | [6] 0.155 | [7] -0.086 | [8] 0.074 | [9] -0.02

EMC8 (UniProt O43402)
inactive: erlotinib -0.007 | [1] -0.069 | [2] 0.063 | [3] 0.008 | [4] 0.035 | [5] 0.054 | [6] -0.003 | [7] -0.005 | [8] 0.002 | [9] 0.038

ELAVL1 isoform 2 (UniProt Q15717)
inactive: erlotinib -0.101 | [1] -0.084 | [2] -0.296 | [3] 0.047 | [4] -0.128 | [5] 0.054 | [6] -0.065 | [7] 0.084 | [8] 0.022 | [9] -0.053

EIF5B (UniProt O60841)
inactive: erlotinib -0.01 | [1] 0.032 | [2] -0.089 | [3] -0.024 | [4] 0.087 | [5] -0.075 | [6] 0.059 | [7] 0.062 | [8] -0.025 | [9] -0.094

EIF4E2 (UniProt O60573)
inactive: erlotinib 0.013 | [1] 0.056 | [2] -0.026 | [3] -0.045 | [4] -0.007 | [5] -0.054 | [6] -0.111 | [7] -0.009 | [8] -0.032 | [9] -0.008

ENDOG (UniProt Q14249)
inactive: erlotinib 0.087 | [1] 0.023 | [2] 0.068 | [3] -0.042 | [4] 0.03 | [5] -0.002 | [6] 0.016 | [7] 0.064 | [8] 0.036 | [9] 0.071

EIF4A2 isoform 2 (UniProt Q14240)
inactive: erlotinib -0.001 | [1] 0.091 | [2] 0.029 | [3] -0.029 | [4] 0.027 | [5] 0.008 | [6] 0.033 | [7] -0.007 | [8] -0.022 | [9] 0.06

EPB41 (UniProt P11171)
inactive: erlotinib -0.025 | [1] 0.054 | [2] -0.042 | [3] 0.042 | [4] -0.023 | [5] -0.015 | [6] -0.036 | [7] -0.07 | [8] 0.001 | [9] -0.016

EIF4EBP2 (UniProt Q13542)
inactive: erlotinib -0.068 | [1] 0.022 | [2] 0.154 | [3] 0.033 | [4] -0.059 | [5] 0.099 | [6] 0.079 | [7] 0.038 | [8] -0.059 | [9] -0.05

EIF2B4 isoform 2 (UniProt Q9UI10)
inactive: erlotinib 0.02 | [1] -0.029 | [2] -0.044 | [3] 0.044 | [4] 0.032 | [5] -0.001 | [6] 0.055 | [7] 0 | [8] -0.012 | [9] -0.032

EIF4EBP1 (UniProt Q13541)
inactive: erlotinib 0.016 | [1] 0.043 | [2] -0.044 | [3] 0.023 | [4] 0.05 | [5] 0.003 | [6] -0.023 | [7] 0.063 | [8] -0.113 | [9] 0.039

EIF1AD (UniProt Q8N9N8)
inactive: erlotinib 0.004 | [1] -0.016 | [2] 0.016 | [3] -0.009 | [4] 0.03 | [5] 0.047 | [6] -0.05 | [7] -0.011 | [8] -0.02 | [9] 0.027
